Experiment [1] has as its target T1, GST–GRAF2 SH3 (human) (UniProt A1A4S6).
T1 sequence: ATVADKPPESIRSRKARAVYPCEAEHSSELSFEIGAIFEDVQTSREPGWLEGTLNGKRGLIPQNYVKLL
The experiment in a line: affinity purification with mass spectrometry; GST-SH3 on glutathione sepharose beads with ~7 mg rat brain or HeLa lysate, 30 min 4°C; 20 mM Hepes pH 7.4, 150 mM NaCl, 2 mM EDTA, 1% IGEPAL CA-630, 1 mM DTT; Thrombin elution, Coomassie bands, LC-MS/MS; only the target purified.

Experiment [2] deals with T2, GST–GRAF1 SH3 (human) (UniProt Q9UNA1).
T2 sequence: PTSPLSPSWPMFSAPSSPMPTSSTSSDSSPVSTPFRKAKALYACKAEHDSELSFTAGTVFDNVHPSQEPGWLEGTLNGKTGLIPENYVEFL
Described as above.

These are yes or no findings as the source states them, for the method shown. In cells and extracts the contact can be indirect. A yes stands for co-enrichment or nearness to the bait. Other partners may have been found. Tags and fused reporters may be left off the sequences shown.

The results in this text go back to PMC7199855, “GRAF2, WDR44, and MICAL1 mediate Rab8/10/11–dependent export of E-cadherin, MMP14, and CFTR ΔF508” (The Journal of Cell Biology, 2020).

B1: endogenous WDR44 (HeLa) (protein, UniProt Q5JSH3 1-913)
chain: MASESDTEEFYDAPEDVHLGGGYPVGSPGKVGLSTFKETENTAYKVGNESPVQELKQDVSKKIIESIIEESQKVLQLEDDSLDSKGKELSDQATASPIVARTDLSNIPGLLAIDQVLPEESQKAESQNTFEETELELKKCFPSDETCEKPVDETTKLTQTSSTEQLNVLETETEVLNKEAVEVKGGGDVLEPVSSDSLSTKDFAAVEEVAPAKPPRHLTPEPDIVASTKKPVPARPPPPTNFPPPRPPPPSRPAPPPRKRKSELEFETLKTPDIDVPKENITSDSLLTASMASESTVKDSQPSLDLASATSGDKIVTAQENGKAPDGQTVAGEVMGPQRPRSNSGRELTDEEILASVMIKNLDTGEEIPLSLAEEKLPTGINPLTLHIMRRTKEYVSNDAAQSDDEEKLQSQPTDTDGGRLKQKTTQLKKFLGKSVKRAKHLAEEYGERAINKVKSVRDEVFHTDQDDPSSSDDEGMPYTRPVKFKAAHGFKGPYDFDQIKVVQDLSGEHMGAVWTMKFSHCGRLLASAGQDNVVRIWALKNAFDYFNNMRMKYNTEGRVSPSPSQESLSSSKSDTDTGVCSGTDEDPDDKNAPFRQRPFCKYKGHTADLLDLSWSKNYFLLSSSMDKTVRLWHISRRECLCCFQHIDFVTAIAFHPRDDRYFLSGSLDGKLRLWNIPDKKVALWNEVDGQTKLITAANFCQNGKYAVIGTYDGRCIFYDTEHLKYHTQIHVRSTRGRNKVGRKITGIEPLPGENKILVTSNDSRIRLYDLRDLSLSMKYKGYVNSSSQIKASFSHDFTYLVSGSEDKYVYIWSTYHDLSKFTSVRRDRNDFWEGIKAHNAVVTSAIFAPNPSLMLSLDVQSEKSEGNEKSEDAEVLDATPSGIMKTDNTEVLLSADFTGAIKVFVNKRKNVS
On to B1, for which the binding result in experiment [1] and in experiment [2] was “binds” throughout.

B2: WDR44 of rat brain lysate (protein, UniProt Q9R037 1-908)
chain: MMPLKMCTWGGSYPVGSPGKVGLLSFKETKNTGNKAGNESPVQELRQDVSKKIIECIIEESQKVLQLEDDSLDSKGKGLSDQATASHSVAGTEFSNIPGLLAIQHELQQGSRKADSQNAAEETELETQKCFPSDNNCEKSEKTEDETNNLTEVSSADQLDASKLETEILNKEAVEVKEGDVVNPASSDALSTKDFAAVEEVAPAKPPRHLTPEPDIVASTKKPVPARPPPPTNFPPPRPPPPSRPAPPPRKKKSDLEFEALKTPDLDVPKDNIASDSLLTTNMASESTVRDSLPSLDLASATSGDKIVTAQENGKAPDVQTVAGEVMGPQRPRSNSGRELTDEEILASVMIKNLDTGEEIPLSLAEEKLPTGINPLTPLTLHIMRRTKEYVSNDATQSDDEEKLQSQQTDTDGGRLKQKTTQLKKFLGKSVKRAKHLAEEYGERAINKVKSVRDEVFHTDQDDPSSSDDEGMPYTRPVKFKAAHGFKGPYDFDQIKVVQDLSGEHMGAVWTMKFSHCGRLLASAGQDNIVRIWALKNAFDYFNNMRMKYNTEGRVSPSPSQESLSSSKSDTDMGVCSGTDEDPDDKNAPFRQRPFCKYKGHTADLLDLSWSKNYFLLSSSMDKTVRLWHISRRECLCCFQHIDFVTAIAFHPRDDRYFLSGSLDGKLRLWNIPDKKVALWNEVDGQTKLITAANFCQNGKYAVIGTYDGRCIFYDTEHLKYHTQIHVRSTRGRNKVGRKITGIEPLPGENKILVTSNDSRIRLYDLRDLSLSMKYKGYVNSSSQIKASFSHDFTYLVSGSEDKYVYIWSTYHDLSKFTSVRRDRNDFWEGIKAHNAVVTSAIFAPNPSLMLSLDVQSEKLEGIDKYEDAEVLDNTSTGIVKTDNTEVLLSADFTGAQCFYVKNSFLYP
As for B2, the binding result in experiment [1] and in experiment [2] was “binds” in each case.

B3: endogenous MICAL1 (human cells) (protein, UniProt Q8TDZ2 1-1067)
chain: MASPTSTNPAHAHFESFLQAQLCQDVLSSFQELCGALGLEPGGGLPQYHKIKDQLNYWSAKSLWTKLDKRAGQPVYQQGRACTSTKCLVVGAGPCGLRVAVELALLGARVVLVEKRTKFSRHNVLHLWPFTIHDLRALGAKKFYGRFCTGTLDHISIRQLQLLLLKVALLLGVEIHWGVTFTGLQPPPRKGSGWRAQLQPNPPAQLANYEFDVLISAAGGKFVPEGFKVREMRGKLAIGITANFVNGRTVEETQVPEISGVARIYNQSFFQSLLKATGIDLENIVYYKDDTHYFVMTAKKQCLLRLGVLRQDWPDTNRLLGSANVVPEALQRFTRAAADFATHGKLGKLEFAQDAHGQPDVSAFDFTSMMRAESSARVQEKHGARLLLGLVGDCLVEPFWPLGTGVARGFLAAFDAAWMVKRWAEGAESLEVLAERESLYQLLSQTSPENMHRNVAQYGLDPATRYPNLNLRAVTPNQVRDLYDVLAKEPVQRNNDKTDTGMPATGSAGTQEELLRWCQEQTAGYPGVHVSDLSSSWADGLALCALVYRLQPGLLEPSELQGLGALEATAWALKVAENELGITPVVSAQAVVAGSDPLGLIAYLSHFHSAFKSMAHSPGPVSQASPGTSSAVLFLSKLQRTLQRSRAKENAEDAGGKKLRLEMEAETPSTEVPPDPEPGVPLTPPSQHQEAGAGDLCALCGEHLYVLERLCVNGHFFHRSCFRCHTCEATLWPGGYEQHPGDGHFYCLQHLPQTDHKAEGSDRGPESPELPTPSENSMPPGLSTPTASQEGAGPVPDPSQPTRRQIRLSSPERQRLSSLNLTPDPEMEPPPKPPRSCSALARHALESSFVGWGLPVQSPQALVAMEKEEKESPFSSEEEEEDVPLDSDVEQALQTFAKTSGTMNNYPTWRRTLLRRAKEEEMKRFCKAQTIQRRLNEIEAALRELEAEGVKLELALRRQSSSPEQQKKLWVGQLLQLVDKKNSLVAEEAELMITVQELNLEEKQWQLDQELRGYMNREENLKTAADRQAEDQVLRKLVDLVNQRDALIRFQEERRLSELALGTGAQG
For B3, the binding entry in experiment [2] was “binds”.

B4: MICAL1 of rat brain lysate (protein, UniProt D3ZBP4 1-1047)
chain: MASPTSTNPAHDHFETFVQAQLCQDVLSSFQGLCRALGVESGGGLPQYHKIKAQLNYWSAKSLWAKLDKRASQPAYQQGQACTNTKCLVVGAGPCGLRAAVELALLGARVVLVEKRTKFSRHNVLHLWPFTIHDLRALGAKKFYGRFCTGTLDHISIRQLQLLLLKVALLLGVEIHWGFTFTGLQPPPKKGSGWRARIQPSPPAQLASYEFDVLISAGGGKFVPEGFTIREMRGKLAIGITANFVNGRTVEETQVPEISGVARIYNQKFFQSLLKATGIDLENIVYYKDDTHYFVMTAKKQCLLRLGVLRQDLPETDQLLGKANVVPEALQQFARAAADFATQGKLGKLEFAQDARGRPDVAAFDFTSMMRSESSARIQEKHGARLLLGLVGDCLVEPFWPLGTGVARGFLAAFDAAWMVKRWAEGTGPLELLAERESLYQLLSQTSPENMHRNVAQYGLDPATRYPNLNLRAVTPNQVQDLYDIMDKEHARKKSDETDARKTTTGSAGTEELLHWCQEQTAGFPGVSVTDFSSSWADGRALCALVHRLQPGLLEPSELQGMSALEATAWALRVAEYELGIIPVLSAQAVVAGSDPLGLIAYLSHFHSAFKNTPHSSGLVSQPHGTPSAILFLGKLQRSLQRTRTKVEEETPCTEEPPVSEPSVPPALPSEHEEAGAEDVCELCGKRLYILERFCVDGHFFHRGCFCCRTCEATLRPGGYGQYPGDGYFYCLQHLPQEDQKEADNNGSPENQELPTPGDSTTQSGPSSPVPPVTEASPVPSPSQPARRLIRLSSVERLRLSSLNIIPDSGVEPPPKPPRSCLDLAQESLKSSFMGWGVLRAPQVPEAIEKGEEEEEEEEEEEEEEEELPPPLALEVEQSLLTLAKNSGDMTKYPTWRRTLMRRAKEEEMKRFCKAQAIQRRLNEIEAAMRELETEGMKLEVALRKESSSPEKQKKLWLEQLLQLIQKKNSLVTEEAELMITVQELDLEEKQRQLDHEFRGINREETLKTQADRLSEDRVLRKLLDVVNQRDALIQFQEERRLREMPV
Turning to B4, the binding result in experiment [1] and in experiment [2] was “binds” in each case.
